61 molecules from PubChem BioAssay AID493014 (National Center for Advancing Translational Sciences (NCATS), 2011) can be followed below.

This is one part of the list. Shown are side measurements of this screen, not its main read-out; they come without a call. Compounds called inactive in the main read-out are mostly missing here. Potencies come from curve fits of mixed quality, noted in brackets.

The nature of this assay: qHTS Assay to Find Inhibitors of Chronic Active B-Cell Receptor Signaling. Conditions: ABC-DLBCL IkBa-CBG/CBR reporter, luminescence ratio (green luciferase fused to IkBa over red control in TMD8 lymphoma cells), 4 h. The method in brief:
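Compounds up to 46 uM were incubated four hours with TMD8 cells whose green CBG68 luciferase is fused to IkappaBalpha; red CBR luminescence normalised the signal, and concentration-effect curves were fitted to fusion, red and ratio data.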

Setting [1] is: measured here: CBR red luminescence, cell number.
[2] abbreviates: measured here: IkBa-CBG green luminescence.

By AC50 is commonly meant the concentration giving half of the maximal activity seen. In the case of `Cc1cccc2cc(CN(C(=O)c3cnccn3)C3CCCCC3)c(Cl)nc12`, the concentration at half-maximal activity (AC50) under setting [1] was 29.1 µM [falling, single point].

In the case of `Cn1c(SCC(=O)c2ccc(O)c(O)c2)nnc1-c1cccs1`, the half-maximal activity concentration (AC50) under setting [1] was 17.8 µM [falling, single point]. Consider `NC(=O)CN1C(=O)C(O)(CC(=O)/C=C\C=C\c2ccccc2)c2ccccc21` (stereo unspecified), for which, under setting [1], the AC50 was 10.3 µM [falling, partial curve, poor fit].

Consider `CCOc1ccccc1C1CC(=O)Nc2cc3c(cc21)OCO3` (stereo unspecified), for which the concentration at half-maximal activity (AC50) is, setting by setting: under setting [1], 12.6 µM [rising, partial curve]; under setting [2], 22.4 µM [falling, single point]. On to `Cc1nc(-c2ccccc2)sc1C(=O)O`, for which the AC50 under setting [1] is 3.98 µM [falling, full curve]. Take `S=C(NCCc1ccccn1)Nc1cccc(Cl)c1`: under setting [1], the AC50 was 1.84 µM [rising, partial curve, poor fit]. For `CCOc1ccc(NC(=S)N(Cc2ccc(N(C)C)cc2)Cc2ccco2)cc1`, the half-maximal activity concentration (AC50) under setting [1] was 35.5 µM [falling, single point]. Still for that read-out and setting: to `Cc1noc(C)c1-c1ccc2ncnc(NCc3cccc(-c4ccccc4)c3)c2c1` belongs 32.6 µM [falling, single point]; to `CSc1nnc(NC(=O)CCc2ccccc2)s1`, 35.5 µM [falling, single point]; to `COc1ccc(C(=O)Nc2cccc3c2CCCC3)cc1OC`, 0.891 µM [rising, full curve, poor fit]. In the case of `O=c1oc2ccccc2c(N2CCC(c3ccccc3)CC2)c1[N+](=O)[O-]`, under setting [1], the half-maximal activity concentration (AC50) is 22.4 µM [falling, partial curve, poor fit].

Turning to `c1ccc(-c2nnc(-c3ccccc3)c(-c3c[nH]c4ccccc34)n2)cc1`, the AC50 under setting [1] is 0.112 µM [rising, full curve, poor fit]. On the same count and under the same terms, to `Cc1cc(N2CCN(C)CC2)nc2ccc(NC(=S)N3CCN(c4cccc(Cl)c4)CC3)cc12` belongs 3.55 µM [falling, single point]; to `CCOc1ccc(NC(=O)CN(C)CC(=O)Nc2cc(Cl)ccc2C#N)cc1OCC`, 32.6 µM [falling, single point]; to `COC(=O)[C@]1(C)N[C@H](CN(C)S(=O)(=O)c2ccc(C(C)(C)C)cc2)[C@@H]2C(=O)N(C)C(=O)[C@@H]21`, 1.3 µM [rising, partial curve, poor fit]. On to `CSc1nc(O)c(/C=C2\C=Nc3ccccc32)[nH]1`, for which the AC50 under setting [1] is 18.4 µM [falling, single point]. Same read-out and setting: to `CCN(CC)c1ccc(C(=O)n2cnc3ccccc32)cc1` belongs 22.4 µM [falling, single point]; to `Cc1ccc(NC(=O)c2sc(Cl)nc2-c2ccccc2)cc1`, 29.1 µM [falling, single point]; to `Clc1ccccc1-c1nc(-c2ccccc2)n[nH]1`, 8.91 µM [falling, partial curve, poor fit]. As to `CC(C)CCOc1ccc(C2CC(=O)N(C)C2=O)cc1` (stereo unspecified), the AC50 under setting [1] is 0.794 µM [rising, full curve, poor fit]. For the molecule `O=C(O)c1ccc(COc2c(F)c(F)c(F)c(F)c2F)o1`, under setting [1], the AC50 was 23.1 µM [rising, single point]. In the case of `CC1(C)CC(=O)C(/C=N/n2c(C(F)(F)F)nc3ccccc3c2=O)=C(O)C1`, the AC50 under setting [1] was 18.4 µM [falling, single point]. Still for that read-out and setting: in the case of `CCN(C(=O)c1ccc2c(Cl)c3c(nc2c1)CCC3)c1cccc(C)c1` it was 7.31 µM [falling, single point]; in that of `Cc1cccc(C(=O)O/N=C/c2c(N3CCOCC3)n(C)c3ccccc23)c1`, 3.98 µM [falling, partial curve, poor fit]. `COc1n[nH]c(C(=O)Nc2nc3ccccc3s2)c1[N+](=O)[O-]`: under setting [1], the AC50 is 3.16 µM [falling, full curve].

Turning to `COc1ccc(-n2cccc2/C=C2\C(=N)N3N=C(C(C)C)SC3=NC2=O)cc1`, the AC50 under setting [1] was 1.12 µM [rising, full curve, poor fit].

Turning to `CC(Sc1nnnn1-c1ccc(Cl)cc1)C(=O)NCC(=O)Nc1ccc(F)c(F)c1F` (stereo unspecified), under setting [2], the AC50 was 32.6 µM [rising, partial curve, poor fit]. Take `Cc1cc(CN2CCN(CCC#N)CC2)c(O)c(C2(C)CCCCC2)c1`: under setting [1], the half-maximal activity concentration (AC50) was 9.2 µM [falling, partial curve, poor fit]. Take `CC(=O)Nc1ccc2nc(NC(=O)COc3ccccc3)sc2c1`: the half-maximal activity concentration (AC50) under setting [1] is 0.501 µM [falling, full curve, poor fit].

`Cn1cccc1C(=O)NCCc1ccccc1`: the AC50 under setting [1] was 22.4 µM [falling, single point].

In the case of `CC1(C(=O)OCC(=O)Nc2nc(-c3ccc(F)c(F)c3)cs2)CC1(Cl)Cl` (stereo unspecified), the AC50 reads like this: under setting [1], 35.5 µM [falling, single point]; under setting [2], 28.2 µM [rising, partial curve, poor fit]. As to `CCCCCn1c(CCC(=O)Oc2ccccc2OC)nc2c1c(=O)[nH]c(=O)n2CCCC`, the AC50 under setting [1] was 1.46 µM [rising, partial curve, poor fit]. Same read-out and setting: in the case of `COC(=O)c1[nH]c2ccc(C)cc2c1NC(=O)Nc1ccc(OC)cc1` it was 13 µM [falling, partial curve, poor fit]; in that of `COc1ccccc1-c1nc(SCC(=O)Nc2ccccc2F)n[nH]1`, 7.08 µM [falling, partial curve]. As for `CCOc1ccc(-c2noc(-c3cccnc3)n2)cc1OCC`, the AC50 under setting [1] is 0.447 µM [rising, full curve, poor fit]. As to `COc1ccccc1NC(=O)Cn1c(C)cc(=O)c2cccc(OC)c21`, the concentration at half-maximal activity (AC50) under setting [1] was 35.5 µM [falling, single point]. As to `COc1ccc(/C(C)=N/NC(=S)NCc2ccco2)cc1`, the concentration at half-maximal activity (AC50) under setting [2] is 29.1 µM [falling, single point]. For `O=C(Nc1nnc(-c2ccccc2)s1)c1cc(S(=O)(=O)N2CCOCC2)c(Cl)cc1Cl`, the concentration at half-maximal activity (AC50) under setting [1] was 2.91 µM [rising, partial curve, poor fit]. On the same count and under the same terms, in the case of `CCc1nnc(NC(=O)CSc2nnc(CNc3cccc(C)c3)n2-c2ccccc2)s1` it was 10 µM [falling, partial curve, poor fit]. Same read-out and setting: to `O=C(Cc1ccccc1)Nc1nnc(-c2ccccc2)o1` belongs 35.5 µM [falling, single point]; to `CN(C)S(=O)(=O)c1cccc(C(=O)N(Cc2ccc(F)cc2)Cc2ccco2)c1`, 3.16 µM [rising, partial curve, poor fit]; to `CN(C)c1ccc(P(=O)(COc2ccc([N+](=O)[O-])cc2)c2ccc(N(C)C)cc2)cc1`, 5.62 µM [falling, single point]. For the molecule `C=CCNC(=O)CN(c1ccc(OC)cc1OC)S(C)(=O)=O`, the AC50 under setting [1] was 6.51 µM [rising, single point].

As to `COc1nc2ccccc2nc1N1CCN(Cc2ccc3c(c2)OCO3)CC1`, the AC50 under setting [1] was 31.6 µM [rising, single point]. Same read-out and setting: to `Cc1cc(C(=O)N/N=C/c2c[nH]c3ccccc23)cs1` belongs 29.1 µM [falling, single point]; to `CN(CC(=O)Nc1ccc(F)cc1)C(=O)CSc1nccn1C`, 16.4 µM [falling, partial curve, poor fit].

Consider `Cc1c(C(=O)C(=O)N2CC=C(c3ccccc3)CC2)c2ccccc2n1C`, for which the AC50 by setting is: under setting [1], 23.1 µM [rising, single point]; under setting [2], 18.4 µM [falling, partial curve, poor fit]. On to `COc1ccc(C(=O)N/N=C(\Cc2ncc[nH]2)c2ccccc2)cc1`, for which the concentration at half-maximal activity (AC50) under setting [1] was 35.5 µM [falling, single point]. Regarding `Cc1ccc(OC(=O)c2c(C)nn(-c3ccccc3)c2C)cc1`, under setting [1], the concentration at half-maximal activity (AC50) is 1.78 µM [rising, partial curve, poor fit]. The same measure, in the same setting: in the case of `O=C(C1=C(c2ccccc2)C(=O)c2ccccc2C1=O)c1ccccc1` it was 4.11 µM [falling, partial curve, poor fit]. For the molecule `C/C(=C\C(=O)c1ccc(Br)cc1)NNC(=O)c1ccc(O)cc1`, under setting [1], the AC50 is 0.316 µM [falling, full curve]. Consider `O=S(=O)(c1ccc(NC(=S)Nc2ccc3c(c2)OCO3)cc1)N1CCOCC1`, for which, under setting [1], the AC50 is 10.3 µM [rising, partial curve, poor fit].

As for `Cc1ccccc1N=Nc1c(C)[nH]n(C(N)=S)c1=O`, the AC50 by setting is: under setting [1], 13 µM [rising, partial curve, poor fit]; under setting [2], 1.46 µM [falling, full curve]. In the case of `O=C(CNC(=O)Cc1ccccc1)NCC(=O)OCC(=O)c1cccc2ccccc12`, under setting [1], the AC50 is 4.11 µM [rising, partial curve, poor fit]. The same measure, in the same setting: to `CCOC(=O)c1c(NC(=O)CSc2ncn[nH]2)sc(C)c1C` belongs 3.26 µM [falling, full curve, poor fit]; to `COc1cc(O)c(C(CC(=O)N2CCCC(C)C2)c2ccc3c(c2)OCO3)c(OC)c1` (stereo unspecified), 20 µM [rising, single point].

For the molecule `O=C(/C=C/c1ccc(S(=O)(=O)N2CCOCC2)cc1)NCc1ccccc1`, the AC50 under setting [1] was 0.092 µM [rising, full curve, poor fit]. For `COc1ccccc1NC(=O)N1CCN(c2nnc(C)c3c(C)n(-c4ccccc4)nc23)CC1`, under setting [1], the AC50 was 10 µM [falling, partial curve, poor fit]. Still for that read-out and setting: in the case of `CCOC(=O)N1CCC(N(C(=O)Nc2ccc(Cl)c(Cl)c2)C(C)CC)CC1` (stereo unspecified) it was 4.11 µM [rising, full curve, poor fit]; in that of `CN(C)c1ccc(NS(=O)(=O)c2ccc(-c3csnn3)cc2)cc1`, 3.98 µM [falling, partial curve]. Regarding `CC(NC(=O)/C(C#N)=C/c1ccc(Cl)c([N+](=O)[O-])c1)c1ccccc1` (stereo unspecified), the half-maximal activity concentration (AC50) is 20.6 µM [falling, partial curve] under setting [1] and 25.9 µM [rising, partial curve, poor fit] under setting [2].
